The values that follow come from publication PMC11156954, “Inhibition and transport mechanisms of the ABC transporter hMRP5” (Nature Communications, 2024).

In one series the test system is R motif of hMRP5. The series is described as follows: Protein lipid overlay (lipid strip) assay, R motif. The note with it: Membrane Lipid Strips, 100 pmol lipid per spot, 0.25 µg/ml protein, 1 h, anti-strep immunoblot. The class given is binding, human. On the technique in general: In western blotting, separated proteins are transferred to a membrane and probed.
On to phosphatidic acid [PA], for which the “lipid binding of purified R motif, in words” value is recorded as “strongly bound”.
The same measure, in the same setting: the value for phosphatidylserine [PS] was “rarely interacting”; that for PI(4)P was “strongly bound”; that for `CCCCCCCC(=O)OC[C@H](COP(=O)(O)OC1[C@H](O)[C@H](OP(=O)(O)O)C(O)[C@H](OP(=O)(O)O)[C@H]1O)OC(=O)CCCCCCC` (stereo partly shown) [phosphatidylinositol 3,5-bisphosphate] was “relatively weak affinity”.
With phosphatidylinositol 4,5-bisphosphate, the “lipid binding of purified R motif, in words” value is given as “relatively weak affinity”.
The same measure, in the same setting: the entry for `CCCCCCCCCCCCCCCC(=O)OC[C@H](COP(=O)(O)O[C@@H]1[C@H](O)[C@H](OP(=O)(O)O)[C@@H](O)[C@H](O)[C@H]1O)OC(=O)CCCCCCCCCCCCCCC` [phosphatidylinositol 3-phosphate] is “strongly bound”; for phosphatidylinositol 5-phosphate it is “strongly bound”.

The next series relates to wt-hMRP5. The series is described as follows: MST binding assay, wt-hMRP5. More on the design: species or system human. The conditions noted are these: three independent measurements.
Regarding `CC(=O)[C@H]1CC[C@H]2[C@@H]3CCC4=CC(=O)CC[C@]4(C)[C@H]3CC[C@]12C` [progesterone], the “binding affinity to wt-hMRP5, in words” value is on record as “low binding affinities”.
The same measure, in the same setting: the entry for `C[C@]12CC[C@H]3[C@@H](CCC4=CC(=O)CC[C@@]43C)[C@@H]1CC[C@@H]2O` [testosterone] is “low binding affinities”.
Same read-out and setting: the entry for `Nc1nc2c(ncn2[C@@H]2O[C@@H]3COP(=O)(O)O[C@H]3[C@H]2O)c(=O)[nH]1` [cGMP, cyclic GMP] is “low binding affinities”.
